Source: PMC7024302, “Ultrashort Cationic Lipopeptides–Effect of N-Terminal Amino Acid and Fatty Acid Type on Antimicrobial Activity and Hemolysis” (Molecules, 2020)
Residues, ends and D or L forms follow the SMILES beside them.

Legend:
K. aerogenes ATCC 13048 = assay type: cell-based, Klebsiella aerogenes; settings: SI = HC50/MIC
Excerpt: (§1) The Acinetobacter baumannii ATCC BAA-1605, Candida albicans ATCC 10231, Enterococcus faecium ATCC 700221, Klebsiella aerogenes ATCC 13048 (previously known as Enterobacter aerogenes), Klebsiella pneumoniae ATCC 700603, Pseudomonas aeruginosa ATCC 9027, Staphylococcus aureus ATCC 25923 and MRSA ATCC 33591, were acquired from the American Type Culture Collection (ATCC). Before running the tests, beads with cryo-protected microorganisms were transferred into fresh MHB (BioMaxima, Lublin, Poland) for bacteria or RPMI-1640 for fungi and incubated for 24 h at 37 °C. Then, the culture was seeded on the Mueller-Hinton agar (MHA) plates (BioMaxima, Lublin, Poland) for bacteria or Sabouraud dextrose agar (SDA) plates (BioMaxima, Lublin, Poland) for fungi and incubated as just mentioned. Cell densities for all assays were adjusted spectrophotometrically (Multiskan™ GO Microplate Spectrophotometer, Thermo Fisher Scientific, Vantaa, Finland) at 600 nm for bacteria and at 530 nm for fungi.
(§2) The MICs were determined by broth microdilution method according to the Clinical and Laboratory Standard Institute guidelines. For this purpose initial inoculums of bacteria (5 × 10^5 CFU/mL) in MHB (BioMaxima, Lublin, Poland) and fungi (2 × 10^3 CFU/mL) in RPMI-1640 with 2% D-glucose (Merck, Darmstadt, Germany) prepared with MOPS (pH 7.0 ± 0.1 at 25 °C; Merck, Darmstadt, Germany) were exposed to the ranging concentration of lipopeptides (0.5–256 µg/mL) and incubated at 37 °C for 18 h and 24 h respectively. The experiments were conducted on 96-well microtiter polystyrene plates (Kartell, Italy). The MIC was taken as the lowest peptide concentration at which a noticeable growth of microorganisms was inhibited. All experiments were conducted in triplicate.

E. faecium ATCC 700221 = assay type: cell-based, Enterococcus faecium; settings: SI = HC50/MIC
Excerpt: as §1, §2

Row | Structure (SMILES) | SI (E2) (K. aerogenes ATCC 13048) | SI (E1) (E. faecium ATCC 700221)
1 | CCCCCCCCCCCCCC(=O)N[C@@H](CC(N)=O)C(=O)N[C@@H](CCCNC(=N)N)C(=O)N[C@@H](CCCNC(=N)N)C(N)=O [compound 62, C14-NRR-NH2] (HELM PEPTIDE1{[CCCCCCCCCCCCCC(=O)[*:2]].N.R.R.[am]}$$$$V2.0) | 0.50 | 8.05
2 | CCCCCCCCCCCCCC(=O)N1CCC[C@H]1C(=O)N[C@@H](CCCNC(=N)N)C(=O)N[C@@H](CCCNC(=N)N)C(N)=O [compound 74, C14-PRR-NH2] | 0.21 | 6.68
3 | CCCCCCCCCCCC(=O)N[C@@H](CCCC)C(=O)N[C@@H](CCCNC(=N)N)C(=O)N[C@@H](CCCNC(=N)N)C(N)=O [compound 65, C12-NleRR-NH2] (HELM PEPTIDE1{[CCCCCCCCCCCC(=O)[*:2]].[Nle].R.R.[am]}$$$$V2.0) | > 1 | > 32
4 | CCCCCCCCCCCCCCCC(=O)N[C@@H](CCCNC(=N)N)C(=O)N[C@@H](CCCNC(=N)N)C(N)=O [compound 5, C16-RR-NH2, reference compound] (HELM PEPTIDE1{[CCCCCCCCCCCCCCCC(=O)[*:2]].R.R.[am]}$$$$V2.0) | 0.72 | 2.86
5 | CCCCCCCCCCCCCC(=O)N[C@@H](CCSC)C(=O)N[C@@H](CCCNC(=N)N)C(=O)N[C@@H](CCCNC(=N)N)C(N)=O [compound 50, C14-MRR-NH2] (HELM PEPTIDE1{[CCCCCCCCCCCCCC(=O)[*:2]].M.R.R.[am]}$$$$V2.0) | 0.27 | 4.39
6 | CCCCCCCCCCCCCC(=O)N[C@@H](C)C(=O)N[C@@H](CCCNC(=N)N)C(=O)N[C@@H](CCCNC(=N)N)C(N)=O [compound 10, C14-ARR-NH2] (HELM PEPTIDE1{[CCCCCCCCCCCCCC(=O)[*:2]].A.R.R.[am]}$$$$V2.0) | 0.16 | 5.14
7 | CCCCCCCCCCCC(=O)N[C@@H](Cc1ccccc1)C(=O)N[C@@H](CCCNC(=N)N)C(=O)N[C@@H](CCCNC(=N)N)C(N)=O [compound 25, C12-FRR-NH2] (HELM PEPTIDE1{[CCCCCCCCCCCC(=O)[*:2]].F.R.R.[am]}$$$$V2.0) | 0.36 | 11.40
8 | CCCCCCCCCCCCCC(=O)N[C@@H](CCCC)C(=O)N[C@@H](CCCNC(=N)N)C(=O)N[C@@H](CCCNC(=N)N)C(N)=O [compound 66, C14-NleRR-NH2] (HELM PEPTIDE1{[CCCCCCCCCCCCCC(=O)[*:2]].[Nle].R.R.[am]}$$$$V2.0) | 1.17 | 4.69
9 | CCCCCCCCCCCC(=O)N[C@H](C(=O)N[C@@H](CCCNC(=N)N)C(=O)N[C@@H](CCCNC(=N)N)C(N)=O)[C@@H](C)CC [compound 37, C12-IRR-NH2] (HELM PEPTIDE1{[CCCCCCCCCCCC(=O)[*:2]].I.R.R.[am]}$$$$V2.0) | 0.47 | 15.05
10 | CCCCCCCCCCCCCC(=O)N[C@@H](Cc1c[nH]c2ccccc12)C(=O)N[C@@H](CCCNC(=N)N)C(=O)N[C@@H](CCCNC(=N)N)C(N)=O [compound 98, C14-WRR-NH2] (HELM PEPTIDE1{[CCCCCCCCCCCCCC(=O)[*:2]].W.R.R.[am]}$$$$V2.0) | 1.15 | 4.61
